The text below walks through data of patent publication US5691196.

Sequences of proteins named here, by UniProt entry; tags and fusion partners are left off. A change or cut given only in a name is not applied to a line headed by its entry.
UniProt P19793: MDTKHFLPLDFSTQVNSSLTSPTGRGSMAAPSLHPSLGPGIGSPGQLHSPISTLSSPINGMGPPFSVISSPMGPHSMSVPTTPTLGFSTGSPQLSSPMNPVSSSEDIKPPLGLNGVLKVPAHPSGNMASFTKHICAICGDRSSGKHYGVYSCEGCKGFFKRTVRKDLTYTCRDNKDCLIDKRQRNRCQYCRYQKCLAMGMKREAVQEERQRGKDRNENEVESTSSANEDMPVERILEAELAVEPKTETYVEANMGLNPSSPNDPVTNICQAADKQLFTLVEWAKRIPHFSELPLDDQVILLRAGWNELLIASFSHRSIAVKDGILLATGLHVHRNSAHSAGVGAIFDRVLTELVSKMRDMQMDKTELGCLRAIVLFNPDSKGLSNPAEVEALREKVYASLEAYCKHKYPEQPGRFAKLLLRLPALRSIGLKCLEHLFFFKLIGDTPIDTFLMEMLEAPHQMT

For some assays here: Negatives hold for the conditions tested. For some assays here: The comparison behind a weaker result is the experiment's own reference, which may not be listed here. For some assays here: Where cells or extracts were used, other partners may take part. For some assays here: Tags and fusion partners may be left off the protein sequences shown. For some assays here: For at least one entry, the source does not settle the construct or the ends of the probe.

In data set [1] the target is RXRalpha (UniProt P19793). Description: activity in cells. Particulars: protein in cells, protein details: pMT2-RXRalpha, CV-1 cells.
The test system of data set [2] is ARP-1 deltaA1 amino-terminal domain deleted. Description: EMSA. The following applies: protein in a lysate after overexpression; label: 32P. Background: Mobility shift assays separate free from complexed probe on a gel.
The subject of data set [3] is ARP-1 deltaA7 amino- and carboxy-terminal domains deleted. Nature of the data set: EMSA. The following applies: no heterodimer with RXRalpha; protein in a lysate after overexpression; label: 32P.
The target in another data set is T1, RARalpha (UniProt P10276).
T1 sequence (looked up, limits assumed): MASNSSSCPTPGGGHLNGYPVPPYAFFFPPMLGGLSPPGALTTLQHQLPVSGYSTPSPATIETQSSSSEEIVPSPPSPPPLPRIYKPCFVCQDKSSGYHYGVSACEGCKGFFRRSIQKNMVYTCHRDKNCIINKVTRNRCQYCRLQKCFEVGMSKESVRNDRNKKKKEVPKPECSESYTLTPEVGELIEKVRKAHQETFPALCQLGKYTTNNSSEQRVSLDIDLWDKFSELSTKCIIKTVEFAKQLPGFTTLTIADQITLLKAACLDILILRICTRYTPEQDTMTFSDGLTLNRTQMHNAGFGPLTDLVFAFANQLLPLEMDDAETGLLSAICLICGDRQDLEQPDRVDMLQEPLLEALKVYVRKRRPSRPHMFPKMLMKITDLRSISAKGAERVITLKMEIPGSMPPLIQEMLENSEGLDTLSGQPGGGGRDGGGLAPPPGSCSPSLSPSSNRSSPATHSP
Nature of the data set: EMSA. The following applies: with control yeast extract; complex not formed; protein in a lysate after overexpression; protein details: pMT2-RARalpha, CMT cells; label: 32P.

Data set [4] concerns RXRalpha/RARalpha heterodimer. Description: EMSA. The following applies: at least 50-fold excess oligo A needed to compete; protein in an extract; protein details: yeast RXRalpha mixed with CMT cell RARalpha; label: 32P.
Data set [5] addresses RXRalpha (UniProt P19793). Nature of the data set: EMSA. The following applies: protein in an extract, protein details: ubiquitin-fusion expression in yeast (YEpRXRalpha), label: 32P.
The subject of data set [6] is RXRalpha/ARP-1 deltaA1 heterodimer ARP-1 amino-terminal domain deleted. Description: EMSA. The following applies: at least 50-fold excess oligo A needed to compete; protein in an extract; protein details: yeast RXRalpha mixed with CMT cell ARPdeltaA1; label: 32P.
Data set [7] relates to ARP-1 deltaA6 carboxy-terminal domain deleted. Description: EMSA. Particulars: no heterodimer with RXRalpha; protein in a lysate after overexpression; label: 32P.
The next data set addresses T2, ARP-1 (UniProt P24468).
T2 sequence (looked up, limits assumed): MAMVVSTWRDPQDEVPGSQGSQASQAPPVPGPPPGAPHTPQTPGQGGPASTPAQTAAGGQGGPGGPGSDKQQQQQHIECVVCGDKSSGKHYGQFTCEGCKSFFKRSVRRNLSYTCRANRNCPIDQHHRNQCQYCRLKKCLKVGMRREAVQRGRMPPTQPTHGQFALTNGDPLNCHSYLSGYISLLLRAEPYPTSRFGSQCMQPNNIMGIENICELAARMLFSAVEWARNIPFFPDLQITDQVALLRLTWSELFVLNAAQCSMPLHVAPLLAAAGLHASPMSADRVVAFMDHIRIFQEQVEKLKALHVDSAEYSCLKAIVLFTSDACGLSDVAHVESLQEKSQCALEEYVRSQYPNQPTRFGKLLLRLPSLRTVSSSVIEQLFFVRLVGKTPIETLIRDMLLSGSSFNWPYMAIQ
Description: EMSA. Particulars: with control yeast extract; protein in a lysate after overexpression; protein details: pMT2-ARP-1, CMT cells; label: 32P.

In data set [8] the test system is ARP-1 deltaA1 amino-terminal domain deleted. Description: competition with a labelled probe. The following applies: protein in a lysate after overexpression; variant of apoAI site A (oligo A).
Data set [9] has as its system RXRalpha/RARalpha heterodimer. Description: competition with a labelled probe. Particulars: protein in an extract; protein details: yeast RXRalpha mixed with CMT cell RARalpha; variant of apoAI site A (oligo A).
Data set [10] concerns the target RXRalpha (UniProt P19793). Description: competition with a labelled probe. Particulars: 100-fold excess does not compete; 9-cis-RA; protein in an extract; protein details: ubiquitin-fusion expression in yeast (YEpRXRalpha); variant of apoAI site A (oligo A).
For data set [11], the system named is RXRalpha/ARP-1 deltaA1 heterodimer ARP-1 amino-terminal domain deleted. Description: competition with a labelled probe. The following applies: protein in an extract; protein details: yeast RXRalpha mixed with CMT cell ARPdeltaA1; variant of apoAI site A (oligo A).
Setting [12] is: mostly endogenous RA receptors, variant of site A5', only the site is given.
Setting [13] is: responsiveness abolished, variant of site A5', only the site is given.

As to “ACTGAACTTTTGACCCCTG (double strand) [M3]”, the activity on this sequence in the data set with RXRalpha [1] (setting [12]) was 3 fold.
Consider “CTTGACCCCTGCCCTGCAG (double strand) [site A3']”, for which the “activity on this sequence” value with RXRalpha [1] (not efficiently transactivated with RA, variant of apoAI site A (oligo A)) is listed as “not active”.
For ACTGACCTGACCCCTG (double strand) [M5], the “activity on this sequence” value in the data set with RXRalpha [1] (setting [13]) was “not active”.
Consider “ACTGAACCCTTGACCCCTGCCCT (double strand) [apoAI site A (oligo A)]”, for which the binding result in data set [2] is “binds”; in data set [3] it was “binds”; with RARalpha it was “no binding”; in data set [4] it was “binds”; with RXRalpha [5] (homodimer with 5e-5 M 9-cis-RA, less efficient than heterodimers), “binds”; with RXRalpha [5] (no 9-cis-RA, no partner), “no binding”. Besides, the binding result (in [6]; in data set [7]; with ARP-1) was “binds” throughout.
As for ACTGAACTGAACCCTG (double strand) [M8], the “activity on this sequence” value with RXRalpha [1] (setting [13]) is “not active”.
For “ACTGAACCCTTGAACCCTG (double strand) [M7]”, the “activity on this sequence” value in the data set with RXRalpha [1] (responds poorly, variant of site A5', only the site is given) is given as “less active”.
As for “ACTGAACCCGGGACCCCTGCCCT (double strand) [oligo Amut]”, in the data set with RXRalpha [1] (RA, variant of apoAI site A (oligo A)), the “activity on this sequence” value is listed as “not active”. In addition, the binding result (in data set [8]; in data set [9]; with RXRalpha [10]; in [11]) was “no binding” in each case.
Regarding “ACTGACCTTTTGACCCCTG (double strand) [M6]”, in the data set with RXRalpha [1] (setting [12]), the activity on this sequence is 3.1 fold.
